Variants at the floor of the assay are shown more often than the library holds them.
B1: tRNA (parent)
chain: GUUCCGUUGGCGUAAUGGUAACGCGUCUCCCUCCUAAGGAGAAGACUGCGGGUUCGAGUCCCGUACGGAACG

Variants of: B1
Assay: yeast fitness relative to wild type (ratio to wild type); higher = fitter; tRNA-Arg(CCU), competitive growth, 37 C, YPD
In short: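 The tRNA-Arg(CCU) gene variants were made by chemical synthesis with a 3% per-site mutation rate at 69 sites and inserted at the native genomic locus of Saccharomyces cerevisiae. After pooling, the strains were competed in YPD at 37°C for 24 hours in six parallel replicates. Gene amplicons from the start population and each end population were read by 100-nucleotide paired-end sequencing, and Darwinian fitness relative to wild type was taken from genotype frequency changes. Genotypes needed ≥ 100 starting reads, and estimates < 0.5 were set to 0.5.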

Variant	yeast fitness
U19C U53A U59C	≤ 0.5
U19G A37G U47A C66U A69U	≤ 0.5
U19G A43C U53C C55G	≤ 0.5
U19G C30U C49G G52A	≤ 0.5
U19G C34U	0.687
U19G C49G U59C A69C	≤ 0.5
U19G G48A C66A	≤ 0.5
U19G G52C C66U	≤ 0.5
U19G U64G C66A	≤ 0.5
A20C A21G C46G A65G	≤ 0.5
A20C A37C G41C G51C	≤ 0.5
A20C A40U C61G	≤ 0.5
A20C A45C C46U	0.587
A20C A45U C55U	≤ 0.5
A20C C24G C27A	≤ 0.5
A20C C24G G39A	≤ 0.5
A20C C24U A40G A42U G50A G51C A70C	≤ 0.5
A20C C24U C31G A37U	≤ 0.5
A20C C24U C31G A37U C60G	≤ 0.5
A20C C24U C34G G58A	≤ 0.5
A20C C24U G56C C60G	≤ 0.5
A20C C27G G41C	≤ 0.5
A20C C27U A37C A42G C66U	≤ 0.5
A20C C27U C34G A43C C61U C62G	≤ 0.5

Variant	yeast fitness
A20C C27U G67C A69U	≤ 0.5
A20C C29G G58A C61G	≤ 0.5
A20C C30A C55A	0.571
A20C C30A C55G	0.557
A20C C30G C33G	≤ 0.5
A20C C30G G68A	≤ 0.5
A20C C31U G68A	≤ 0.5
A20C C34A A65C A70C	≤ 0.5
A20C C34A G56C	≤ 0.5
A20C C46G C49A C61U	≤ 0.5
A20C C46U G50C	≤ 0.5
A20C G25A U32A C34G A37U	≤ 0.5
A20C G25C A40C A43C C55A C61G C66G	≤ 0.5
A20C G38C A42G A70C	≤ 0.5
A20C G38C A43U A45G A65C	≤ 0.5
A20C G39A U53A	≤ 0.5
A20C G44C A57U	≤ 0.5
A20C G44C G48A G51A	≤ 0.5
A20C G48C A57G A65C G67C A69G	≤ 0.5
A20C G56U	0.765
A20C U28G C46A A65U	≤ 0.5
A20C U35A A36G G44C A57C	≤ 0.5
A20C U35A A36G G44C G68U	≤ 0.5
A20G A21G C24U U59C C62A	≤ 0.5

Variant	yeast fitness
A20G A36G U54A A70G	≤ 0.5
A20G A37C A57U	≤ 0.5
A20G A37G G38A C55U U59G	0.563
A20G A40G A42G	≤ 0.5
A20G A42G C61G A65G C66A	≤ 0.5
A20G A42U C62G G63A	≤ 0.5
A20G C24A C27A C30U A69C	≤ 0.5
A20G C24G U32C G51A	≤ 0.5
A20G C27A A36U	≤ 0.5
A20G C29U C34U G50A C55G C66A	≤ 0.5
A20G C30U C49A C62U	≤ 0.5
A20G C31A C34G A45U	≤ 0.5
A20G C31G A36U A65U	≤ 0.5
A20G C34G U47C C49G C61U A69G	≤ 0.5
A20G C34U	0.777
A20G C34U A40U C61G	≤ 0.5
A20G G23A C29G	≤ 0.5
A20G G23C G50A	≤ 0.5
A20G G38A C60G A70C	≤ 0.5
A20G G38C G41C A65G	≤ 0.5
A20G G41C A70U	0.622
A20G G44A	0.962
A20G G50A A70C	≤ 0.5
A20G U32G A36U A57C	≤ 0.5

Variant	yeast fitness
A20G U32G A43C A45U	≤ 0.5
A20G U35G G67C	≤ 0.5
A20G U53G C60A	≤ 0.5
A20U A21C C22U	≤ 0.5
A20U A21U	0.61
A20U A21U C31G C55A	≤ 0.5
A20U A36C A43U U47C A65G	≤ 0.5
A20U A37G A43G G68A	≤ 0.5
A20U A37U	0.811
A20U A40G U54C	≤ 0.5
A20U A40U C55U A65C G67C A70G	≤ 0.5
A20U A40U U59A	≤ 0.5
A20U A42C G50C G67C	≤ 0.5
A20U A43G A70U	0.661
A20U A45C C62U C66U	≤ 0.5
A20U C22A C61A C62G G68A	≤ 0.5
A20U C22G U32C	≤ 0.5
A20U C24G A45G	≤ 0.5
A20U C24U G51C U54A	≤ 0.5
A20U C27A A40U C46A	≤ 0.5
A20U C27G C29A G51C U53A	≤ 0.5
A20U C27U C55G	≤ 0.5
A20U C29A A36C A40C A45C	≤ 0.5
A20U C29G C49G G58U G63C	≤ 0.5

Variant	yeast fitness
A20U C29G C49G G63C C66A	≤ 0.5
A20U C29U A37U U64A	≤ 0.5
A20U C29U C49G	≤ 0.5
A20U C29U C55G A65G	≤ 0.5
A20U C29U U53A	≤ 0.5
A20U C30G C33A G50A G52A C60U C61G	≤ 0.5
A20U C31A A37C	≤ 0.5
A20U C31A A57G U64G C66A	≤ 0.5
A20U C33A C49U A65U A70U	≤ 0.5
A20U C33A G41C G44A G50C G68A	≤ 0.5
A20U C33U G38C A40U G44C G51C C60U A69G	≤ 0.5
A20U C34A	0.7
A20U C49G U54C C55A	≤ 0.5
A20U C62U A65C	0.682
A20U G23A G63A A70U	≤ 0.5
A20U G23C U35G	0.643
A20U G23U A43C A57U G63A	≤ 0.5
A20U G25C A37G	≤ 0.5
A20U G39C	0.81
A20U G50A G63C	≤ 0.5
A20U G67A	0.657
A20U G68A A69C	0.639
A20U G68U	0.792
A20U U26A	0.754

Variant	yeast fitness
A20U U26A C62U	0.542
A20U U28A C34A A37U C62U	≤ 0.5
A20U U28C C30U A43G U64C	≤ 0.5
A20U U28C U54A A69U	≤ 0.5
A20U U53C A57C A65U	≤ 0.5
A21C A45C C49U A69U	≤ 0.5
A21C A45C U53C	≤ 0.5
A21C A45G U47C G68C	≤ 0.5
A21C A45U G67A	≤ 0.5
A21C C22A C34G A37C C62U	≤ 0.5
A21C C24U C29U A69U	≤ 0.5
A21C C24U C30U C55U	≤ 0.5
A21C C27A C60G	≤ 0.5
A21C C27U A57G	0.79
A21C C27U C33A A37C	0.554
A21C C29G G68C	0.557
A21C C31G A69U	≤ 0.5
A21C C33U C61A G68C	≤ 0.5
A21C C34U A40U	≤ 0.5
A21C C49U G67C	≤ 0.5
A21C G23A A37C G58C	≤ 0.5
A21C G23C C60A	≤ 0.5
A21C G50A G67A	≤ 0.5
A21C G52C A70U	≤ 0.5

Variant	yeast fitness
A21C G56A G67U	≤ 0.5
A21C G67C A70G	≤ 0.5
A21C U26A C29G	≤ 0.5
A21C U28G C33U C34A G52C C61U	≤ 0.5
A21C U35C C66G	≤ 0.5
A21C U59A A65U	≤ 0.5
A21C U59C A65C	≤ 0.5
A21G A36C A37U C62G A69U	≤ 0.5
A21G A36C C46G A65U	≤ 0.5
A21G A36U A43U C62A	≤ 0.5
A21G A40C C55A	≤ 0.5
A21G C22A A37G A42U C49G A57U	≤ 0.5
A21G C22A C55A U64A	≤ 0.5
A21G C22U A37U A45G C46G C55A U64G	≤ 0.5
A21G C22U A37U A45G C46G C55G	≤ 0.5
A21G C22U C46A A69U	≤ 0.5
A21G C22U G38C A43C C61A	≤ 0.5
A21G C24G A37U	0.573
A21G C27A C33G A70C	≤ 0.5
A21G C27G C34G A43C C46G A70G	≤ 0.5
A21G C29G C62G C66G	≤ 0.5
A21G C31G C66A	0.505
A21G C31U C33U U59A	≤ 0.5
